For one substance, binding results are on record in PMC4145799.

Chains of the proteins cited; added tags and fusions are not shown.
UniProt P0A9H3: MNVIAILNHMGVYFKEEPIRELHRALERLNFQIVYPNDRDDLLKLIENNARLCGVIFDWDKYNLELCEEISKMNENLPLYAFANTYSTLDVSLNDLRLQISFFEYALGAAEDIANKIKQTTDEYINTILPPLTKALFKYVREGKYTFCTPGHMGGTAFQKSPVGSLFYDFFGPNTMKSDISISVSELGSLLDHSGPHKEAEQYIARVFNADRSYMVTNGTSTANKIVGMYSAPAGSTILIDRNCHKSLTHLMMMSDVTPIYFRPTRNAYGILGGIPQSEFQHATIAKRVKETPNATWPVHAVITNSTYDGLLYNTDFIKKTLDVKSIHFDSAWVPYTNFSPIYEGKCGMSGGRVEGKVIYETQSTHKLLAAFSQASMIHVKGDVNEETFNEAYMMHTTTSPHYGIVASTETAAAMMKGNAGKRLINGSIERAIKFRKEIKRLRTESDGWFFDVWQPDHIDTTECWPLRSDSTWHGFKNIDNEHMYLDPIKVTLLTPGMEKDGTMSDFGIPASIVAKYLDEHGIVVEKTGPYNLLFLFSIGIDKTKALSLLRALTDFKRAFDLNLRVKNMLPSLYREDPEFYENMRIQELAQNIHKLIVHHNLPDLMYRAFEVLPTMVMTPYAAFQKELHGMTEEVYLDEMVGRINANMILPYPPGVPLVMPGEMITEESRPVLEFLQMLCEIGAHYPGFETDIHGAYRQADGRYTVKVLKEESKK
UniProt P31473: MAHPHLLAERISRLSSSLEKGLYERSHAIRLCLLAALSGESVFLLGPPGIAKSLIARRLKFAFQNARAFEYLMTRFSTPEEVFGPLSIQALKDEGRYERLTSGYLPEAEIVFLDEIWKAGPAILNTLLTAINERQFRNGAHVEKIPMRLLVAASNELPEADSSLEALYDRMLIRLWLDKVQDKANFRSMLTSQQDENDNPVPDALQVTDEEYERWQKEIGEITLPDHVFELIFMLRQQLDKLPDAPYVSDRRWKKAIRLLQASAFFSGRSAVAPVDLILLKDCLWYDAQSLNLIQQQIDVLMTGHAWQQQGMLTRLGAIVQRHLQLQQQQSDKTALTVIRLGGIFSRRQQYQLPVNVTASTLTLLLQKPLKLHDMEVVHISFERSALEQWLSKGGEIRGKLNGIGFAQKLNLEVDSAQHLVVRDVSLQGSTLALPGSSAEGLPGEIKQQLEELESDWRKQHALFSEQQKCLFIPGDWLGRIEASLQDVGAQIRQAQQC

No constants are given. Whether binding was seen depends on the method and setting. Some results given as binding are weak or reduced against the parent protein; the word gives no strength.

This assay addresses inducible lysine decarboxylase LdcI (Escherichia coli) (UniProt P0A9H3). Nature of the assay: cryo-EM structure; LdcI–RavA complex, 11 Å; 1.26 mg/ml LdcI mixed with 0.94 mg/ml RavA, 15 min at room temperature, 25 mM Mes pH 6.5, 200 mM NaCl, 3 mM ADP, 0.8 mM PLP, 1 mM DTT; no cross-linking; D5 symmetry imposed; both purified.

Turning to “AAA+ ATPase RavA (from UniProt P31473 1-498) (enzyme)”, the binding entry is “binds”.
